PubChem BioAssay AID652259 – Drosophila RNAi Screening Center | 2013

Assay: 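Genome-wide hunt for genes that control Wingless pathway activity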 (primary screen)
Cell system: Drosophila clone 8 imaginal disc epithelial cells
Knock-down reagent: long dsRNA against Drosophila genes
Challenge: pathway stimulated by co-transfected Wingless expression plasmid
Detection: 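Dual luciferase reads per well after Wingless plasmid stimulation: reporter firefly light and Renilla control light; activity is firefly divided by Renilla, a ratio not deposited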
Scale: firefly reporter light: higher = more Wg reporter light, before normalisation; Renilla control light: higher = more transfected or surviving cells
Call rule: 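a knock-down is a candidate when at least two out of four statistical tests show it departing from its plate mean; one test alone signals a weak candidate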
Meaning of the calls: active = candidate regulator (raises or lowers reporter); inactive = not a candidate
In all, the deposit lists about 22,000 reagents; this is a random part of those that have a named target and a result. Over the whole deposit, 233 (1.1%) got an active call. 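Light values are raw, unnormalised plate reads; the ratio scores behind the reporter calls were not deposited.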 A plus sign joins genes that one reagent is predicted to hit. No sequences are given here. Not given: the amount of reagent, the time to read-out, the dose of the treatment.

no.	gene	PubChem SID	reporter change call, replicate 1	firefly reporter light, replicate 1	firefly reporter light, replicate 2	Renilla control light, replicate 1	Renilla control light, replicate 2	activity call
1	CG8483	SID104196222		4656		1606		inactive
2	CG33271	SID104190375		6568		2006		inactive
3	mrva	SID104190801		8149		3325		inactive
4	mrva	SID104201489		5.97e5	5.57e5	2.68e5	3.02e5	inactive
5	lncRNA:CR43491	SID104198976		1840		736		inactive
6	NaPi-III	SID104190685		2816		1212		inactive
7	NaPi-III	SID104190686	Wg reporter activity raised	9132		886		active
8	NaPi-III	SID104202310		5.93e5	6.82e5	2.27e5	2.00e5	inactive
9	Or85a	SID104196556		13984		3783		inactive
10	Dscam1	SID104184839		16169		8285		inactive
11	Dscam1	SID104184840		15693		8103		inactive
12	Dscam1	SID104187199		2272	6409	648	2283	inactive
13	Dscam1	SID104201275		5.05e5	4.99e5	1.50e5	1.46e5	inactive
14	Dscam1	SID104201862		9.00e5	8.24e5	4.41e5	4.03e5	inactive
15	Obp99a	SID104195095		3450		2342		inactive
16	Or45a	SID104187279		2204	7415	541	1011	inactive
17	CalpC	SID104199665		14596		7522		inactive

5 of these entries in another layout.
gene | PubChem SID | reporter change call, replicate 1 | firefly reporter light, replicate 1 | firefly reporter light, replicate 2 | Renilla control light, replicate 1 | Renilla control light, replicate 2 | activity call
mrva | SID104190801 | – | 8149 | – | 3325 | – | inactive
mrva | SID104201489 | – | 5.97e5 | 5.57e5 | 2.68e5 | 3.02e5 | inactive
lncRNA:CR43491 | SID104198976 | – | 1840 | – | 736 | – | inactive
NaPi-III | SID104190685 | – | 2816 | – | 1212 | – | inactive
NaPi-III | SID104190686 | Wg reporter activity raised | 9132 | – | 886 | – | active

Further records follow.
no.	gene	PubChem SID	reporter change call, replicate 1	firefly reporter light, replicate 1	firefly reporter light, replicate 2	Renilla control light, replicate 1	Renilla control light, replicate 2	activity call
18	C1GalTA	SID104183038		12198		4658		inactive
19	CG14606	SID104192342		16298		3734		inactive
20	LManV	SID104183015		10509		2640		inactive
21	CG15831 (retired record)	SID104200608		19907		8481		inactive
22	TfIIS	SID104183247		9936		978		inactive
23	ND-51	SID104182937		7232		3016		inactive
24	CG16863	SID104181684		2598	5689	1120	3056	inactive
25	feo	SID104199190		3968		1201		inactive
26	CG6972	SID104195951		24524		18103		inactive
27	Ass + CG31286	SID104192285		10363		2776		inactive
28	Fas1	SID104196461		18765		3666		inactive
29	CG12590	SID104192008		12696		2120		inactive
